PubChem BioAssay AID1224830 – NIAID | 2016

- Screen: 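Regulators of TLR4 signalling towards TNF-alpha in macrophage-like cells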 (primary screen)
- System: human THP-1 monocytic leukaemia cells, TNF dual-luciferase reporter clone, PMA-differentiated to macrophage-like cells
- Reagents: siRNA pool against human genes, 50 nM
- Timing: LPS for 4 h, given about 3 days after siRNA transfection
- Treatment: bacterial LPS (TLR4 ligand), 10 ng/ml
- Measured: 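Ratio of firefly to renilla light, scaled to the plate median and expressed as a robust z-score per replicate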
- Direction: TNF reporter robust z-score: higher = stronger TNF reporter response to LPS
- Rule for the call: 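a well is active when its z-score exceeds 2.8 or falls below -1.5; control wells carry no call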
In all, the deposit lists about 18,000 reagents; shown is an unselected part. Of all reagents, about 2,900 (16%) were called active. 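Calls are made per well; low scores hint the gene aids the LPS response, high scores that it dampens it.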 Repeated entries: four replicate wells of each siRNA pool.

| Gene | TNF reporter robust z-score | Outcome |
| --- | --- | --- |
| ADRA2C | 2.71 | inactive |
| ADRA2C | 0.91 | inactive |
| ADRA2C | -0.38 | inactive |
| ADRA2C | 0.34 | inactive |
| BRD3 | 2.07 | inactive |
| BRD3 | 0.91 | inactive |
| BRD3 | 2.88 | active |
| BRD3 | 1.76 | inactive |
| TFAP2C | -0.47 | inactive |
| TFAP2C | 0.13 | inactive |
| TFAP2C | -0.54 | inactive |
| TFAP2C | -0.08 | inactive |
| SPAG11A | -1.13 | inactive |
| SPAG11A | -0.79 | inactive |
| SPAG11A | -0.01 | inactive |
| SPAG11A | 0.31 | inactive |
| TWF2 | -1.86 | active |
| TWF2 | -1.61 | active |
| TWF2 | -2.2 | active |
| TWF2 | -1.72 | active |
| KLHL42 | -0.13 | inactive |
| KLHL42 | 0.07 | inactive |
| KLHL42 | -0.03 | inactive |
| KLHL42 | 0.5 | inactive |
| RALA | -0.81 | inactive |
| RALA | -0.64 | inactive |
| RALA | 0.01 | inactive |
| RALA | 0.14 | inactive |
| HNRNPH2 | 0.14 | inactive |
| HNRNPH2 | -0.88 | inactive |
| HNRNPH2 | -0.26 | inactive |
| HNRNPH2 | 0.98 | inactive |
| OTC | -1.1 | inactive |
| OTC | -0.58 | inactive |
| OTC | -0.9 | inactive |
| OTC | -0.42 | inactive |
| NAT1 | 0.52 | inactive |
| NAT1 | 1.13 | inactive |
| NAT1 | 0.87 | inactive |
| NAT1 | 0.64 | inactive |
| LY6D | -0.48 | inactive |
| LY6D | 0.22 | inactive |
| LY6D | 0.98 | inactive |
| LY6D | 1.54 | inactive |
| FSTL5 | -0.94 | inactive |
| FSTL5 | -0.86 | inactive |
| FSTL5 | -0.08 | inactive |
| FSTL5 | -0.1 | inactive |
